Measured values taken from US6344546.
No constants are given. Whether binding was seen depends on the method and setting. Some results given as binding are weak or reduced against the parent protein; the word gives no strength.

Protein sequences, listed by entry. Tags and fused reporters are not part of them. Residues count along the entry.
UniProt P21802, residues 22-821: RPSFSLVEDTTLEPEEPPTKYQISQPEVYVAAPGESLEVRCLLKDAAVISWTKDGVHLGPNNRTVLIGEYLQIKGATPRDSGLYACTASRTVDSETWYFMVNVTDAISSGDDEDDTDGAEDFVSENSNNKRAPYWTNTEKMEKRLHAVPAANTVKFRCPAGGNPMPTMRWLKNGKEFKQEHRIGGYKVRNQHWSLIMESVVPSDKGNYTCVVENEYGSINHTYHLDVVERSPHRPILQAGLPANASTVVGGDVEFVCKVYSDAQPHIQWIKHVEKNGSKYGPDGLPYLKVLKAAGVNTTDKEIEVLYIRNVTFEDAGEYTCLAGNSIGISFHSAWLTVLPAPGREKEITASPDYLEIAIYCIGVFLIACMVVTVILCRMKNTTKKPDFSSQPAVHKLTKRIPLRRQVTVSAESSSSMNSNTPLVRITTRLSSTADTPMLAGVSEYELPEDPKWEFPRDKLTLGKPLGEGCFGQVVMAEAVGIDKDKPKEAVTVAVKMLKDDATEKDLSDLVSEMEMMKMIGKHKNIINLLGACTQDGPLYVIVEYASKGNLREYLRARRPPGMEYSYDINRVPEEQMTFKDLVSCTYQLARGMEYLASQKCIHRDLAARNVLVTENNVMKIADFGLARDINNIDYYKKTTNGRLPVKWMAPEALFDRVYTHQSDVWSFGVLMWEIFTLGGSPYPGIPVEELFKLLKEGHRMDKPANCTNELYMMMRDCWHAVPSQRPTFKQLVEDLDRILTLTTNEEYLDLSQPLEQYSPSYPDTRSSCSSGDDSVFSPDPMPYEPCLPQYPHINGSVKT
UniProt P11362, residues 22-822: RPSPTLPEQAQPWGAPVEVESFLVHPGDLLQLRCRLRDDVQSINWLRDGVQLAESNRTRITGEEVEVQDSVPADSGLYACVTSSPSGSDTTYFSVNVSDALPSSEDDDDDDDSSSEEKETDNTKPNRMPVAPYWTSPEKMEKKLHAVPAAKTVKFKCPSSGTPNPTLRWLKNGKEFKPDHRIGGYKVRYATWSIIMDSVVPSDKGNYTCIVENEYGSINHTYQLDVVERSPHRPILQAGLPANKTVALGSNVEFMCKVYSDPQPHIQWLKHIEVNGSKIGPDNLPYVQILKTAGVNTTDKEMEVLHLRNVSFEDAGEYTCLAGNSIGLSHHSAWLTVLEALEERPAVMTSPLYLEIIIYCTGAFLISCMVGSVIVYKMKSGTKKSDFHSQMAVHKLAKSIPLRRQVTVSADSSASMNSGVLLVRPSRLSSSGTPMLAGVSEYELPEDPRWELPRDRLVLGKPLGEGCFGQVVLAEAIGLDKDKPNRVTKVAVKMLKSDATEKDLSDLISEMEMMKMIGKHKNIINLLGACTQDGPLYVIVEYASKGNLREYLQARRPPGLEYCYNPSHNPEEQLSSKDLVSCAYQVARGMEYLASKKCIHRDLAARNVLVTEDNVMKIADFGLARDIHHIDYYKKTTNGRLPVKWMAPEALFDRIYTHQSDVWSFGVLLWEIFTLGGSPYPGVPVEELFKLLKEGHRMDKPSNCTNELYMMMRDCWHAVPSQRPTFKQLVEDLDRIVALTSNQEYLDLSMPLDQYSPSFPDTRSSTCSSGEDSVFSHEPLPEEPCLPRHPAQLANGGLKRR
UniProt P03968, residues 16-155: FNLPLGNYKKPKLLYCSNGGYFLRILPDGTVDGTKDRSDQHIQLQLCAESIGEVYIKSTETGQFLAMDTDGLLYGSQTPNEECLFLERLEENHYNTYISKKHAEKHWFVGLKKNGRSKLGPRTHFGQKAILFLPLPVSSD
UniProt P09038, residues 134-288: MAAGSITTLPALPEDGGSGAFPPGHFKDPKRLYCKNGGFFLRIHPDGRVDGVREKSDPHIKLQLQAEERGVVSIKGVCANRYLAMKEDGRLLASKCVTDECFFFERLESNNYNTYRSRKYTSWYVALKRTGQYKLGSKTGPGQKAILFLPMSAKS

Legend:
[1] = biological target: human bek (bacterially expressed kinase) fibroblast growth factor receptor (human) (UniProt P21802); experiment: crosslinking of [125I]aFGF to transfected NIH 3T3 clones
[2] = biological target: human flg (fms-like gene) fibroblast growth factor receptor (human) (UniProt P11362); experiment: as above
[3] = biological target: human bek (bacterially expressed kinase) fibroblast growth factor receptor (human) (UniProt P21802); experiment: saturation binding of iodinated ligand to overexpressing cells
[4] = biological target: human flg (fms-like gene) fibroblast growth factor receptor (human) (UniProt P11362); experiment: as above
[5] = biological target: human bek (bacterially expressed kinase) fibroblast growth factor receptor (human) (UniProt P21802); experiment: covalent crosslinking of [125I]FGF to intact cells with disuccinimidyl suberate, SDS-PAGE
[6] = biological target: human flg (fms-like gene) fibroblast growth factor receptor (human) (UniProt P11362); experiment: as above

Row | binding [1] | binding [2] | binding [3] | binding [4] | binding [5] | binding [6] | Substance
1 | binds | binds | binds | binds | binds | binds | bovine derived acidic fibroblast growth factor (from UniProt P03968 16-155) (ligand)
2 |  |  | binds | binds | binds | binds | human recombinant basic fibroblast growth factor (from UniProt P09038 134-288) (ligand)
